Data source: PubChem BioAssay AID1159584 (Peter MacCallum Cancer Centre, 2016)

- Aim: 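Genes whose loss is lethal only together with E-cadherin loss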 (primary screen)
- Cell system: human MCF10A breast epithelial cells, parental and CDH1-null
- Reagent: siRNA against human genes
- Measured: 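Cell viability by CellTiter-Glo ATP luminescence, each line scaled to the mean of mock wells across plates, then CDH1-null over parental ratio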
- Direction: CDH1-null / parental viability ratio: higher = CDH1-null cells survive relatively better than parental
Here is a random part of about 18,000 reagents. Not all columns of the deposit are shown. Reagent sequences are not shown. Not given: the amount of reagent, the time to read-out.

gene symbol	CDH1-null / parental viability ratio
RAB22A (GeneID 57403)	0.93
WFDC1 (GeneID 58189)	1.06
BDH1 (GeneID 622)	1.22
ARHGAP19 (GeneID 84986)	1.11
IKZF1 (GeneID 10320)	1.1
ZBTB45 (GeneID 84878)	0.93
ZNF271P (GeneID 10778)	1
CFD (GeneID 1675)	0.92
CXorf58 (GeneID 254158)	1.14
RYR3 (GeneID 6263)	1.34
TNC (GeneID 3371)	0.96
TFDP3 (GeneID 51270)	0.89
DEDD2 (GeneID 162989)	0.86
ANAPC7 (GeneID 51434)	0.95
NIBAN1 (GeneID 116496)	0.97
ORC4 (GeneID 5000)	1.02
EVPL (GeneID 2125)	1.05
IWS1 (GeneID 55677)	1.15
KMT2B (GeneID 9757)	0.97
UBE2E3 (GeneID 10477)	0.95
MAMSTR (GeneID 284358)	1.21
ACTR1A (GeneID 10121)	0.79

7 entries from above in another layout.
{"gene symbol":"ZBTB45 (GeneID 84878)","CDH1-null / parental viability ratio":0.93}
{"gene symbol":"ZNF271P (GeneID 10778)","CDH1-null / parental viability ratio":1}
{"gene symbol":"CFD (GeneID 1675)","CDH1-null / parental viability ratio":0.92}
{"gene symbol":"CXorf58 (GeneID 254158)","CDH1-null / parental viability ratio":1.14}
{"gene symbol":"RYR3 (GeneID 6263)","CDH1-null / parental viability ratio":1.34}
{"gene symbol":"TNC (GeneID 3371)","CDH1-null / parental viability ratio":0.96}
{"gene symbol":"TFDP3 (GeneID 51270)","CDH1-null / parental viability ratio":0.89}

Additional reagents:
gene symbol	CDH1-null / parental viability ratio
RNF31 (GeneID 55072)	1.01
OR5L2 (GeneID 26338)	0.98
LINC00173 (GeneID 100287569)	1.11
ERC2 (GeneID 26059)	0.87
HPCAL1 (GeneID 3241)	1.3
MFSD8 (GeneID 256471)	1.01
IFT70A (GeneID 92104)	1
ADGRE4P (GeneID 326342)	1.29
SYNE2 (GeneID 23224)	1.16
CCNB1IP1 (GeneID 57820)	1.15
MAP3K8 (GeneID 1326)	1.2
VPS28 (GeneID 51160)	1.06
ZNF710 (GeneID 374655)	1.23
SAMD13 (GeneID 148418)	0.94
SLC6A5 (GeneID 9152)	0.9
GZMK (GeneID 3003)	1.22
OSTM1 (GeneID 28962)	1.48
BID (GeneID 637)	1.09
FAM234B (GeneID 57613)	0.98
RIOK2 (GeneID 55781)	1.12
GRM3 (GeneID 2913)	1.44
FGFBP1 (GeneID 9982)	1.16
OR5AR1 (GeneID 219493)	1.15
TSC22D2 (GeneID 9819)	1.04
PCDHGB3 (GeneID 56102)	0.77
TEX35 (GeneID 84066)	1.15
CYTH4 (GeneID 27128)	0.73
IFT81 (GeneID 28981)	0.82
FOXN4 (GeneID 121643)	1.33
RNF185 (GeneID 91445)	1
CSAG1 (GeneID 158511)	1.32
UGT1A10 (GeneID 54575)	1.1
UPK3B (GeneID 105375355)	0.93
MYG1 (GeneID 60314)	0.73
C19orf53 (GeneID 28974)	0.83
DNMT3L (GeneID 29947)	1.21
GAGE4 (GeneID 2576)	1
ZNF397 (GeneID 84307)	0.78
IBSP (GeneID 3381)	0.84
MYH8 (GeneID 4626)	0.86
ADD3 (GeneID 120)	1.14
ZNF763 (GeneID 284390)	0.93
CCHCR1 (GeneID 54535)	0.92
KIR2DS3 (GeneID 3808)	0.7
SYNE1 (GeneID 23345)	0.85
CHRNA1 (GeneID 1134)	1.21
